Test results: patent US20170226560A1, “GOLD NANOPARTICLE-BASED HOMOGENEOUS COLORIMETRIC DIAGNOSTIC ASSAY FOR THE DETECTION OF PROTEASES AND PROTEASE INHIBITORS” (IMRA America, Inc., priority 2014, published 2017)
Ends that are not written are not given here.

Key:
[1] = Peptide substrate induced aggregation of colloidal gold nanoparticles (UV-VIS absorbance ratio, color); settings: for induced aggregation of gold nanoparticles by intact peptide substrate: negatively charged gold nanoparticles 1 nM, average diameter 20 nm, 20° C., peptide 300 nM to 1000 nM
trypsin = experiment: Colloidal gold nanoparticle-based colorimetric assay for trypsin (hydrolytic cleavage of peptide substrate); format: biochemical; settings: 20° C., 20 nm gold nanoparticles
Description: Based on the design criteria for the peptide substrate mentioned above, a sequence of amino acids in the peptide substrate of SEQ ID NO: 1 Lys-Lys-Gly-Phe-Pro-Arg-Gly-Gly-Asp-Cys was used in an assay method patterned after FIG. 1a. Unless noted otherwise, all incubations and reactions reported in the present specification were conducted at 20° C. The final reaction volume in all experiments described in the present specification, unless noted otherwise, was 500 microliters and the gold nanoparticle concentration was 1 nM. […] Thus, in all of the described experiments the aggregation state of any gold nanoparticle solution could be measured after 30 minutes or less. […] All of these can be evaluated using the present inventive assay methods. […]
After confirming that the peptide substrate SEQ ID NO: 1 Lys-Lys-Gly-Phe-Pro-Arg-Gly-Gly-Asp-Cys did induce the aggregation of negative surface charged gold nanoparticles, we carried out another experiment of examining the ultraviolet-visible spectra of solutions of colloidal gold nanoparticles after they were added to solutions of peptide substrates that had been pre-exposed for different time periods of from 0 minutes (min) to 60 min to trypsin. […] The absorbance spectrum shifts back to a maximum at 520 nm±5 nm, non-aggregated nanoparticles, as the pre-exposure time increases. […]

Substance | induced aggregation of gold nanoparticles by intact peptide substrate [1] | ratio of the absorbance at 650 nm/absorbance at 520 nm ([1]; 750 nM peptide substrate, no trypsin present, 20 nm gold nanoparticles) | limit of detection of trypsin (trypsin; 750 nM peptide substrate SEQ ID NO: 1, pre-exposure 60 minutes) | limit of detection of trypsin (trypsin; 750 nM peptide substrate SEQ ID NO: 1, pre-exposure 3 hours)
CGFPRGGSDE [SEQ ID NO: 4, peptide substrate for trypsin] | no color change |  |  | 
KKGFPRGGDC [SEQ ID NO: 1, peptide substrate cleaved by trypsin; intact peptide aggregates negatively charged gold nanoparticles] | did induce aggregation of gold nanoparticles | ~1 |  | 
trypsin: pancreatic serine protease with molecular weight of 24 kDa; analyte of the assay [reference compound] |  |  | about 20 pM | 2 to 10 pM
